PubChem BioAssay AID1259405 | NCATS, 2018
Screen: 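Knock-downs that lift recombinant protein yield in hamster ovary cells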 (primary screen). Cells: Chinese hamster CHO-K1 ovary cells with stable secreted eGFP expression. Reagents: single siRNA against mouse genes, 0.8 pmol siRNA per well (2 µl of 400 nM stock). Time to read-out: 3 days. Read-out: 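Per-well intracellular GFP measured by laser scanning cytometry, plus viability from ATP luminescence, each relative to plate median of non-targeting control wells, in %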. Scale: GFP, % of control: higher = more GFP per well, higher productivity; viability (ATP), % of control: higher = more viable cells (more ATP). Active means: 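Called active when intracellular GFP, relative to negative control, is at or above 120%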.
Shown is an unselected part of about 50,000 reagents tested. About 4,000 of them (8%) were called active. 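Mouse siRNA library applied to hamster cells; one well for each siRNA.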 The numbers tell different reagents against one gene apart.

gene | reagent | GFP, % of control | viability (ATP), % of control | activity call
Or5p53 (olfactory receptor family 5 subfamily P member 53) | 1 | 87.9 | 81.9 | inactive
Or5p53 (olfactory receptor family 5 subfamily P member 53) | 2 | 88 | 89.4 | inactive
Or5p53 (olfactory receptor family 5 subfamily P member 53) | 3 | 55.4 | 52.8 | inactive
Zfp653 (zinc finger protein 653) | 1 | 68.1 | 60.3 | inactive
Zfp653 (zinc finger protein 653) | 2 | 77 | 73.5 | inactive
Zfp653 (zinc finger protein 653) | 3 | 62.3 | 49.1 | inactive
Fam32a (family with sequence similarity 32, member A) | 1 | 63.2 | 69.7 | inactive
Fam32a (family with sequence similarity 32, member A) | 2 | 23.8 | 21.3 | inactive
Fam32a (family with sequence similarity 32, member A) | 3 | 46.8 | 50.1 | inactive
Adcyap1 (adenylate cyclase activating polypeptide 1) | 1 | 135 | 42.2 | active
Adcyap1 (adenylate cyclase activating polypeptide 1) | 2 | 70 | 76 | inactive
Tmem101 (transmembrane protein 101) | 1 | 58.3 | 44 | inactive
Tmem101 (transmembrane protein 101) | 2 | 95.2 | 99.1 | inactive
Tmem101 (transmembrane protein 101) | 3 | 86.3 | 80 | inactive
Ngb (neuroglobin) | 1 | 72.1 | 93.2 | inactive
Ngb (neuroglobin) | 2 | 70.5 | 55.7 | inactive
Ngb (neuroglobin) | 3 | 55.9 | 37.9 | inactive
Fxyd1 (FXYD domain-containing ion transport regulator 1) | 1 | 133 | 76 | active
Fxyd1 (FXYD domain-containing ion transport regulator 1) | 2 | 53.8 | 56.6 | inactive
Fxyd1 (FXYD domain-containing ion transport regulator 1) | 3 | 74 | 70.2 | inactive
Btg2 (BTG anti-proliferation factor 2) | 1 | 51.3 | 54.9 | inactive
Btg2 (BTG anti-proliferation factor 2) | 2 | 79.1 | 87.9 | inactive
Btg2 (BTG anti-proliferation factor 2) | 3 | 146 | 132 | active
Pdzd7 (PDZ domain containing 7) | 1 | 90.8 | 78.4 | inactive
Pdzd7 (PDZ domain containing 7) | 2 | 81.5 | 96 | inactive
Pdzd7 (PDZ domain containing 7) | 3 | 91 | 100 | inactive
Krtap6-5 (keratin associated protein 6-5) | 1 | 86.3 | 97.3 | inactive
Krtap6-5 (keratin associated protein 6-5) | 2 | 36.5 | 35.8 | inactive
Krtap6-5 (keratin associated protein 6-5) | 3 | 103 | 77.4 | inactive
Acsbg1 (acyl-CoA synthetase bubblegum family member 1) | 1 | 90.5 | 47.9 | inactive
Acsbg1 (acyl-CoA synthetase bubblegum family member 1) | 2 | 73.5 | 80.1 | inactive
Acsbg1 (acyl-CoA synthetase bubblegum family member 1) | 3 | 59.3 | 59.1 | inactive
Rab11fip5 (RAB11 family interacting protein 5 (class I)) | 1 | 65 | 87.5 | inactive
Rab11fip5 (RAB11 family interacting protein 5 (class I)) | 2 | 61.7 | 64.8 | inactive
Rab11fip5 (RAB11 family interacting protein 5 (class I)) | 3 | 110 | 98.5 | inactive

6 successive entries already listed:
gene | reagent | GFP, % of control | viability (ATP), % of control | activity call
Or5p53 (olfactory receptor family 5 subfamily P member 53) | 2 | 88 | 89.4 | inactive
Or5p53 (olfactory receptor family 5 subfamily P member 53) | 3 | 55.4 | 52.8 | inactive
Zfp653 (zinc finger protein 653) | 1 | 68.1 | 60.3 | inactive
Zfp653 (zinc finger protein 653) | 2 | 77 | 73.5 | inactive
Zfp653 (zinc finger protein 653) | 3 | 62.3 | 49.1 | inactive
Fam32a (family with sequence similarity 32, member A) | 1 | 63.2 | 69.7 | inactive
